# Data reported in ChEMBL document CHEMBL4049430, “Indazole-6-phenylcyclopropylcarboxylic Acids as Selective GPR120 Agonists with in Vivo Efficacy” (J Med Chem, 2017).
# Experiment: Octanol-buffer partition coefficient, log D of the compound at pH 7.4 after 30 mins by LC-UV based shake-flask method
# Details: octanol/water
smiles,measurement,value
Cc1ccc(-n2nc(C)c3ccc(-c4ccc([C@H]5C[C@@H]5C(=O)O)cc4)cc32)cc1,logD at 0.5 h,3.8
